## Percent effect of library compounds

The chains behind the UniProt entries cited, without tags or fusion partners.
UniProt P9WPC5, whole entry: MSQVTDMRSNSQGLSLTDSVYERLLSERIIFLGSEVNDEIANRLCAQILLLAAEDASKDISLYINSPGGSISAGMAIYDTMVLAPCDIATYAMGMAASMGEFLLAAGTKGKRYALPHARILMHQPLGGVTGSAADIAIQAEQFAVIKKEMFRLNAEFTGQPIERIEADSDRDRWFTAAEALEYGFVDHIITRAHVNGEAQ
UniProt P9WPC3, whole entry partner: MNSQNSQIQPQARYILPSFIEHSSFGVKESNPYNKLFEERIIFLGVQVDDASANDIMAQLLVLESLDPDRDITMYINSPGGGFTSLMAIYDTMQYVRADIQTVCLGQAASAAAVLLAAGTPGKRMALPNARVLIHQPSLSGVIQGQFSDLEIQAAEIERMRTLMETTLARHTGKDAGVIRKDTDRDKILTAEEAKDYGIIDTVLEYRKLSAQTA

The filed quantity is “Percent Effect” (%). How 0% and 100% were set is not recorded. Most values in the screen are low, and negative values occur. This is an unselected part of the compounds tested. A dash means the value is not listed here; it may have been measured.

Toxoplasma: 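Assay of Toxoplasma gondii numbers, read through their beta-galactosidase reporter with a colour substrate. Concentration: 10 µM. The record gives no direction; the compounds picked for IC50 retests had high values, so higher reads as fewer parasites. About 67,000 compounds were tested under these conditions; 0.38% (about 260) showed 50% or more at least once.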
ClpP1P2: 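ClpP1P2, Mycobacterium tuberculosis (UniProt P9WPC5 and UniProt P9WPC3). Protease assay of ClpP1P2, read by the AMC dye that it sets free. Tested at 50 µM. Higher reads as stronger inhibition, judged from the few compounds that gave an IC50. Most other retested compounds had strongly negative values. Size under these conditions: about 69,000 compounds, about 10 of them at 50% or above in at least one test.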

Compound	Toxoplasma	ClpP1P2
Clc1cccc(C(CNCc2ccccn2)N2CCOCC2)c1 (stereo not shown)	9.341	10.53
Cn1cc(CNC[C@H]2Cn3ccnc3CO2)c2ccccc21	-6.835	-13.63
CC(C)c1ccc(S(=O)(=O)Cc2nc(N)nc(N(C)C)n2)cc1	8.125	7.952
CCS(=O)(=O)N1CC[C@H]2O[C@H](c3nnc(C)o3)CC[C@H]21	-	-4.088
OCc1nnn2c1CN(Cc1cccnc1)CCC2	1.377	-1.485
O=C(NCC1CC2(CO1)CN(c1nncs1)C2)C1CCC1 (stereo not shown)	-6.461	-5.74
Cc1ccc(CN2C[C@H](O)C[C@H]2c2nc(-c3ccc(F)cc3)no2)cc1	6.897	-6.331
CCC(O)CN1CCN(C(=O)c2ccnc(N(C)C)c2)CC1 (stereo not shown)	0.6924	-5.528
Cc1cc(-c2n[nH]c3c2CN(S(=O)(=O)c2ccsc2)CC3)c(C)o1	9.961	-16.07
NC(=O)CSCC(=O)NCC1CCCC1	0.5445	29.89
O=C(Cn1nc(-c2ccc(F)cc2)oc1=O)NCc1ccncc1	6.664	-19.97
O=C(O)C(F)(F)F.O=C(O)C(F)(F)F.[H][C@@]12CN(Cc3cnn(C)c3)CCO[C@]1([H])CN(C1CCCC1)C2	-1.467	-
CCOCC1CN(C(=O)c2ccncn2)Cc2cnn(C)c21.O=C(O)C(F)(F)F (stereo not shown)	-5.16	-
C[C@@H]1CN(CCc2ccccc2)C[C@]12CCN(CC(=O)N(C)C)C2=O.O=C(O)C(F)(F)F	-2.552	-
O=C(NCC1Cn2nnc(-c3ccncc3)c2CO1)c1ccsc1 (stereo not shown)	-	-3.275
O=C(CN1CCc2cncnc2C1)Nc1ccc(Cl)cn1	-11.75	-33.36
CCOCC(=O)NCC(CC)(OC)c1ccccc1 (stereo not shown)	4.118	3.815
CC(CCn1cccn1)N1CCC(n2cc(C(C)(C)N)nn2)CC1 (stereo not shown)	-4.407	-14.8
COc1ccc(CN(Cc2ccco2)Cc2[nH]cnc2C)c(OC)c1.O=C(O)CC(O)(CC(=O)O)C(=O)O	-40.11	-
CCn1ccnc1CN1CCCC(CO)(Cc2cccc(OC)c2)C1 (stereo not shown)	-0.05797	2.534
O=c1cc2c(nn1CN1CCN(c3ccccc3)CC1)CCC2	-7.651	8.422
Cc1occc1C(=O)N1CCCn2cnc(CN3CCCC3=O)c2C1	-3.045	-7.621
Cc1cnc(N2CC[C@H]3[C@@H]2CCC(=O)N3c2ccccc2)nc1	-	11.65
CC(=O)N1CCC2(CCN(C(=O)c3ccc(F)c(C(F)(F)F)c3)CC2)C1	0.8918	-6.302
Cc1cccc(N2N=C(C(=O)NC(C)Cc3ccco3)CCC2=O)c1 (stereo not shown)	22.5	4.443
CN1CCN(C2COC3(CCN(Cc4cccs4)CC3)C2)CC1.O=C(O)C(F)(F)F.O=C(O)C(F)(F)F (stereo not shown)	5.496	-
CN(C)C(=O)C1CCN(Cn2nc(-c3ccc(F)cc3)oc2=O)CC1	1.074	-12.67
CC(C)N1CCOC(CC(=O)N2CCCN(Cc3ccncc3)CC2)C1 (stereo not shown)	-6.043	-1.616
Cc1ccc(CN2CC[C@H]3[C@H]2CCN3S(=O)(=O)C2CC2)s1	-	1.965
COc1ccc(CNC2CCc3ncnn3C2)cc1OCC1CC1 (stereo not shown)	-6.328	4.149
CN1CC(=O)N(c2cccc(F)c2)CC12CCN(S(=O)(=O)C1CC1)C2.O=C(O)C(F)(F)F (stereo not shown)	-9.207	-
CC[C@H]1CN2CC[C@H]1C[C@@H]2CNCc1ccc(OC(F)(F)F)cc1	-	-6.648
CNC(=O)C1Cc2ccccc2CN1CCc1cccs1 (stereo not shown)	3.22	3.497
Cc1ccc(S(=O)(=O)Nc2cnn(C3CCOCC3)c2)cc1C	2.395	-4.878
Cc1n[nH]c(C)c1CCC(=O)NCC1CCOc2ccccc2C1 (stereo not shown)	-2.516	-3.6
O=C(CO)N1CC[C@@H](N2CCN(c3ccccc3F)CC2)[C@H](O)C1	1.273	1.007
Cc1nc(C)c(C(=O)NCCNC(=O)c2ccc(F)cc2F)s1	2.154	12.18
O=C(O)C(F)(F)F.O=C(O)C(F)(F)F.[H][C@@]12CCN(CC3CC3)[C@]1([H])CC[C@H](C(=O)NCCc1ccncc1)O2	21.18	-
COc1ccc(CNCCc2cccc(C(N)=O)c2)cc1O	0.05359	-0.7527
Cn1ccc(C(=O)N2CCC[C@]3(C[C@@H](OCc4ccccn4)CO3)C2)n1	-	6.711

For reference, 2 entries once more:

- Cn1cc(CNC[C@H]2Cn3ccnc3CO2)c2ccccc21 : Toxoplasma: -6.835%; ClpP1P2: -13.63%
- CCOCC(=O)NCC(CC)(OC)c1ccccc1 (stereo not shown) : Toxoplasma: 4.118%; ClpP1P2: 3.815%

Measurements from “University of Dundee, Small-Polar-MMV Screening Library” (2021), ChEMBL document CHEMBL3988442.